These are yes or no findings as the source states them, for the method shown. Some entries that bind do so weakly or less than the wild type.
Biological target: lysosome-associated membrane protein type 2A in isolated lysosomes (in vitro assays of Fig. 3d, e) (not stated (lysosomes from rat liver or mouse brain)) (UniProt P17046)
Assay: native gel or EMSA; blue-native electrophoresis (3-12% NativePAGE Bis-Tris) of isolated lysosomes solubilised in 1% octylglucoside, immunoblot for L2A; lysosomes incubated alone or with tau, Ac-Tau, hsc70 or alpha-synuclein

B1: lysosome-associated membrane protein type 2A in isolated lysosomes (in vitro assays of Fig. 3d, e) (receptor, UniProt P17046 27-411)
chain: LKLNLTDSKGTCLYAEWEMNFTITYEALKVNETVTITVPDKVTYNGSSCGDDKNGAKIMIQYGSTLSWAVNFTKEASQYFINNITLSYNTNDTKTFPGAVPKGILTVIIPVGSQLPLGVIFKCSSVLTFNLSPVVQHYWGIHLQAFVQNGTVSKHEQVCKEDKTATTVAPIIHTTVPSPTTTLTPTSIPVPTPTVGNYTISNGNATCLLATMGLQLNITEEKVPFIFNINPAITNFTGSCQPQTAQLRLNNSQIKYLDFIFAVKNEKRFYLKEVNVNMYLANGSAFHVSNNNLSFWDAPLGSSYMCNKEQVVSVSRTFQINTFNLKVQPFNVTKGEYSTAQDCSADEDNFLVPIAVGAALGGVLILVLLAYFIGLKRHHTGYEQF
  binding: binds

From PMC8047017
